Measurements as given in paper PMC8985375.
Results are given in words; binding and its absence hold for the method and conditions named. In cells and extracts the contact can be indirect. Some entries that bind do so weakly or less than the wild type.

Protein sequences, listed by entry. Tags and fused reporters are not part of them.
UniProt P11103: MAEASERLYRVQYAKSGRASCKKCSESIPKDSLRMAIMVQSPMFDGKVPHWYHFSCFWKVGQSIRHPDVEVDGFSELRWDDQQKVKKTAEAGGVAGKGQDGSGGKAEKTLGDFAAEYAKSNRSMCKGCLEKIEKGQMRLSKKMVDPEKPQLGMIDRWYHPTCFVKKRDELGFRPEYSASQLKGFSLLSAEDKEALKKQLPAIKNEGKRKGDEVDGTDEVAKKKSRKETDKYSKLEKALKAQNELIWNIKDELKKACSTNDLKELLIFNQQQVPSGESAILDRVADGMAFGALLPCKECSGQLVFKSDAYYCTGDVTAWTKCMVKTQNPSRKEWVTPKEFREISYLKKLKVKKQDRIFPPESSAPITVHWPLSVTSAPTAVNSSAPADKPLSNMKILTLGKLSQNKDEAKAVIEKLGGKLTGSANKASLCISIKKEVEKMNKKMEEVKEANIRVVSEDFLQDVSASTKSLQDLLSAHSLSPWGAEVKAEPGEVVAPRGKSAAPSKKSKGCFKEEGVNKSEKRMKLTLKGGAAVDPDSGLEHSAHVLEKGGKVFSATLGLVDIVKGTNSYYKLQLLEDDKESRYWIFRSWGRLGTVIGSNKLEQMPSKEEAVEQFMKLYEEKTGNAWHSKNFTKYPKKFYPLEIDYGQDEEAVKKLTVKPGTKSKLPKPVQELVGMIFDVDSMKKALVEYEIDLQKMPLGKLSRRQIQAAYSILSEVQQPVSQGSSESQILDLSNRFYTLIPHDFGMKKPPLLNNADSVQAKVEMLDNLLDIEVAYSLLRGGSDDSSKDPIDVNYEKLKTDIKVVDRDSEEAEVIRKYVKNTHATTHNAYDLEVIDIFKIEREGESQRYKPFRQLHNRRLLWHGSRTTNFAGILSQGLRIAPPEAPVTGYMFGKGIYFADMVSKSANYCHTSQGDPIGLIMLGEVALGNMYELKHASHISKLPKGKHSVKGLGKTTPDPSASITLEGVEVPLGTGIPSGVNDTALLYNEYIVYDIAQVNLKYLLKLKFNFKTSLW
UniProt Q3URK3: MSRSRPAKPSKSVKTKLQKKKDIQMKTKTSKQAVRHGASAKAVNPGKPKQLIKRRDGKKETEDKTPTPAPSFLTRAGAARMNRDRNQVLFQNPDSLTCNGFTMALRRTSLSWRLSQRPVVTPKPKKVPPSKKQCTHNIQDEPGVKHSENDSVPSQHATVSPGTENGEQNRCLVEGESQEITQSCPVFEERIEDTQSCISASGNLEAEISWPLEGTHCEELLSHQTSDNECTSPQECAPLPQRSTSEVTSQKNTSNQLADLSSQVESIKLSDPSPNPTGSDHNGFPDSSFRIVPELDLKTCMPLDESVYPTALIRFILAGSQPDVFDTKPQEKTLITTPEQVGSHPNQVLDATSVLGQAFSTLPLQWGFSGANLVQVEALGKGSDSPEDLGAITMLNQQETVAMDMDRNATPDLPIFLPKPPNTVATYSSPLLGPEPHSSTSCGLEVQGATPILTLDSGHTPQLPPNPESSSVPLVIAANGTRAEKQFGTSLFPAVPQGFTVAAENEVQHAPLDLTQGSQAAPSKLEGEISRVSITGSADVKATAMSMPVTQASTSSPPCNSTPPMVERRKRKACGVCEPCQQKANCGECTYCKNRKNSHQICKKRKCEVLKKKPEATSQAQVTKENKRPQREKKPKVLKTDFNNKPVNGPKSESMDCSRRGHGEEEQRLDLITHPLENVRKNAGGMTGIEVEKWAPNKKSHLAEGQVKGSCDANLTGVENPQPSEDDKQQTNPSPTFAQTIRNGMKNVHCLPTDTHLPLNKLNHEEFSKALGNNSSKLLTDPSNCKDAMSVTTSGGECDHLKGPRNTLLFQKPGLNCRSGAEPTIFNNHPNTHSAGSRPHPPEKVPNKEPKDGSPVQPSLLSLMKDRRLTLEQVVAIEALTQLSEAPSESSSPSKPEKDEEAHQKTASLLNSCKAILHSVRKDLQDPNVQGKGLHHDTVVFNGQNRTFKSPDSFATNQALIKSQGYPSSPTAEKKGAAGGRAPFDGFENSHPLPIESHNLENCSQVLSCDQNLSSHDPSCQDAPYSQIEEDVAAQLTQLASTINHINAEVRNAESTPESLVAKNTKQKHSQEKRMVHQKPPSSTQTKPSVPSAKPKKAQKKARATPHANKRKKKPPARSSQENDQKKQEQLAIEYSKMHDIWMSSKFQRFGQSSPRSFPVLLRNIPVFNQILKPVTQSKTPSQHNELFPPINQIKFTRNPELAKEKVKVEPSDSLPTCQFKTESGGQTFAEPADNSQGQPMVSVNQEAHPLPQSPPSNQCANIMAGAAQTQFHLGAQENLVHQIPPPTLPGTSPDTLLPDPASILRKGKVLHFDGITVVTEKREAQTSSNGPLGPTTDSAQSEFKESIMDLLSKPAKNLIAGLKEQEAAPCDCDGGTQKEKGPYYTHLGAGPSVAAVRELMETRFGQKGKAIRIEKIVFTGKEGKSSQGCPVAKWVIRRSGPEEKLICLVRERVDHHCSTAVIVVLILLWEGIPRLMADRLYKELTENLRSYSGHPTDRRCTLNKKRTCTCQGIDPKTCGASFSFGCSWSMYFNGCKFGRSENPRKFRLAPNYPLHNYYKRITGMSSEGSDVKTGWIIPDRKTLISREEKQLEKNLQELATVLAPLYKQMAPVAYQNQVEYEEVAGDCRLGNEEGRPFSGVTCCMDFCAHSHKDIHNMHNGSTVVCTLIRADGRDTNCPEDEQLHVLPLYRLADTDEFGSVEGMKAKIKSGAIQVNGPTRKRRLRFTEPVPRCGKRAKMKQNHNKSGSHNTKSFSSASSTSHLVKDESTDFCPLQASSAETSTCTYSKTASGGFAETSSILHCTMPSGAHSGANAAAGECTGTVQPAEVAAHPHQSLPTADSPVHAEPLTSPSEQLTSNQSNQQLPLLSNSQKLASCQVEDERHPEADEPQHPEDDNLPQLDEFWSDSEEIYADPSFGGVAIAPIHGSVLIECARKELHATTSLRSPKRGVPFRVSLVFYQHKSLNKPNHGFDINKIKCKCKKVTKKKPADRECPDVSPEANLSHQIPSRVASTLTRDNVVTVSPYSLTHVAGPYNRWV

Assays:
[1] = molecular target: poly(ADP-ribose) polymerase-1 (mouse (endogenous in NIH3T3)) (UniProt P11103); assay: co-IP; co-immunoprecipitation of endogenous TET1 and PARP-1 from NIH3T3 cell lysates; protocol in Additional file 3 (not shown)
[2] = molecular target: TET1 (mouse (endogenous in NIH3T3)) (UniProt Q3URK3); assay: as above

TET1 (from UniProt Q3URK3 1-2039)
binding [1]: binds

poly(ADP-ribose) polymerase-1 (from UniProt P11103 1-1013)
binding [2]: binds
